This is one part of the list.
How the values were obtained:
Test in all cases: log2 fold change, soluble protein after heating vs DMSO (PISA); higher = thermal stabilisation; K562 lysate, 10 uM; active = over 0.2 and 3.5 SD of the protein, either way, in both replicates (recomputed)
erlotinib = compound: C#Cc1cccc(Nc2ncnc3cc(OCCOC)c(OCCOC)cc23)c1 [erlotinib]
Procedure, shortened: (§1)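 To prepare the extract, K562 pellets were dounce-homogenised in PBS pH 7.4 with 1 mM MgCl2, giving crude material at 1 mg/mL protein. This was treated with 10 μM compound for 30 min, then heated in aliquots for 3 min over 48°C-58°C before pooling and addition of NP-40 to 0.5% at 4°C. Centrifugation at 21,000xg for 90 min left soluble protein in the supernatant, which TMTpro 16plex LC-MS/MS quantified with equalised channel sums. Results are log-two fold changes in thermal stability compared with solvent controls, from duplicates.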

Sequences of proteins named here, by UniProt entry; tags and fusion partners are left off. A change or cut given only in a name is not applied to a line headed by its entry.
UniProt Q15691: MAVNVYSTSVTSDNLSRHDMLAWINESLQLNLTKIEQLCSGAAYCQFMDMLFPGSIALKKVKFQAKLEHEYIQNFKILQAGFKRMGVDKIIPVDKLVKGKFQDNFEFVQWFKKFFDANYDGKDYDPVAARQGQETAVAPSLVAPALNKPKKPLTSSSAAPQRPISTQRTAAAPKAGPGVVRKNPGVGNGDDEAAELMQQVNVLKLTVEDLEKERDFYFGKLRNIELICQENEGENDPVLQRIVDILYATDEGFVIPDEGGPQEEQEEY
UniProt Q9Y6R4: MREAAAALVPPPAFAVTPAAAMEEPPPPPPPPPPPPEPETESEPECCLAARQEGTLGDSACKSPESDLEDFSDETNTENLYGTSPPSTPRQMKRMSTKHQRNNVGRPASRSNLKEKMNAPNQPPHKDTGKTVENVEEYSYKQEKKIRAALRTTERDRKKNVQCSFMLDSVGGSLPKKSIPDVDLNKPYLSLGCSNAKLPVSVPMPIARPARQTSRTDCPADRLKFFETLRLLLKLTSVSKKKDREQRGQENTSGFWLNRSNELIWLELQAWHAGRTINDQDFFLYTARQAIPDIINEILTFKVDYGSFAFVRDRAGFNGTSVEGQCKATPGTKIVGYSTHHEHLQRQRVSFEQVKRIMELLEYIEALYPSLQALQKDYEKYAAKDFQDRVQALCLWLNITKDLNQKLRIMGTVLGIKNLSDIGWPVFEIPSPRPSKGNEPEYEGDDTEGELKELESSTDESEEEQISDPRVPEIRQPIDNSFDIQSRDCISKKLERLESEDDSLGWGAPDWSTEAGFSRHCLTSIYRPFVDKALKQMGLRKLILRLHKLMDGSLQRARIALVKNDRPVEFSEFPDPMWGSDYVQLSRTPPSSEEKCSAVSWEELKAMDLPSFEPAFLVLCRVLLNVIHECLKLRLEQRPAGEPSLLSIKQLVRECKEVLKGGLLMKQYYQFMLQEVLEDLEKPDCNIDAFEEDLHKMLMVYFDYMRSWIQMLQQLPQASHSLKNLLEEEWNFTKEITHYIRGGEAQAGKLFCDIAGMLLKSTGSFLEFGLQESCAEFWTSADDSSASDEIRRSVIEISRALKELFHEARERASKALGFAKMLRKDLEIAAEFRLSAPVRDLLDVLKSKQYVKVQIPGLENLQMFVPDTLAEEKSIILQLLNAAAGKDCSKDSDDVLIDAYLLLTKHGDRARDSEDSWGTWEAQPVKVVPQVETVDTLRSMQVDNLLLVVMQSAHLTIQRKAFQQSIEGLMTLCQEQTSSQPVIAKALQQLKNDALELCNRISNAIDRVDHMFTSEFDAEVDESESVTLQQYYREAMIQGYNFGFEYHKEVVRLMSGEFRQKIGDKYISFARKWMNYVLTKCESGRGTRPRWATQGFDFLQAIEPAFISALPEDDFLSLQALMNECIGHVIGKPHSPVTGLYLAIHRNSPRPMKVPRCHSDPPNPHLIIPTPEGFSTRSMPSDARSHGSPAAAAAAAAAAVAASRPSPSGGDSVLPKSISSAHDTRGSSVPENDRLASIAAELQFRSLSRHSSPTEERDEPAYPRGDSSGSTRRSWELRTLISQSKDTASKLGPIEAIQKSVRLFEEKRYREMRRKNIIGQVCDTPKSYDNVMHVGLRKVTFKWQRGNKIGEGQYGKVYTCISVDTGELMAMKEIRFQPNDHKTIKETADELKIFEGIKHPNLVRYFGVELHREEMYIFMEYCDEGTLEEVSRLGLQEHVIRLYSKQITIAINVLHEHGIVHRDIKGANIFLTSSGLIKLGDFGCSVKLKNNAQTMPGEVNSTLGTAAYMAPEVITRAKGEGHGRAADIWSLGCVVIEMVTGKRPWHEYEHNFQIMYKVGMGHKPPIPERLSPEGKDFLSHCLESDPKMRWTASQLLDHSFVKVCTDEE
UniProt Q9UPY8, whole entry, looked up: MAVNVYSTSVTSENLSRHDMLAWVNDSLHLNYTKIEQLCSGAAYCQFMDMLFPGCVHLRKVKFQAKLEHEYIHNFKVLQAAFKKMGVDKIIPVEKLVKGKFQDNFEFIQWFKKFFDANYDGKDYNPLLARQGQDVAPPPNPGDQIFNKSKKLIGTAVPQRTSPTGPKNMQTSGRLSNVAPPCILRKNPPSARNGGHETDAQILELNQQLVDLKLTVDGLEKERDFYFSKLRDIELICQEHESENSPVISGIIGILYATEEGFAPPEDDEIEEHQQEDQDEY
UniProt P49006: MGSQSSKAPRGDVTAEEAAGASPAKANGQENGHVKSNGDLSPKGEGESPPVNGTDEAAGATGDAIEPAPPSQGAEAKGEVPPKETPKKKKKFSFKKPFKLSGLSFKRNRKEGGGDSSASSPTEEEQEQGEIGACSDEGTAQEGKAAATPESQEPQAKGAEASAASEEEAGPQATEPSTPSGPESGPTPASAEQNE
UniProt Q8N5G2: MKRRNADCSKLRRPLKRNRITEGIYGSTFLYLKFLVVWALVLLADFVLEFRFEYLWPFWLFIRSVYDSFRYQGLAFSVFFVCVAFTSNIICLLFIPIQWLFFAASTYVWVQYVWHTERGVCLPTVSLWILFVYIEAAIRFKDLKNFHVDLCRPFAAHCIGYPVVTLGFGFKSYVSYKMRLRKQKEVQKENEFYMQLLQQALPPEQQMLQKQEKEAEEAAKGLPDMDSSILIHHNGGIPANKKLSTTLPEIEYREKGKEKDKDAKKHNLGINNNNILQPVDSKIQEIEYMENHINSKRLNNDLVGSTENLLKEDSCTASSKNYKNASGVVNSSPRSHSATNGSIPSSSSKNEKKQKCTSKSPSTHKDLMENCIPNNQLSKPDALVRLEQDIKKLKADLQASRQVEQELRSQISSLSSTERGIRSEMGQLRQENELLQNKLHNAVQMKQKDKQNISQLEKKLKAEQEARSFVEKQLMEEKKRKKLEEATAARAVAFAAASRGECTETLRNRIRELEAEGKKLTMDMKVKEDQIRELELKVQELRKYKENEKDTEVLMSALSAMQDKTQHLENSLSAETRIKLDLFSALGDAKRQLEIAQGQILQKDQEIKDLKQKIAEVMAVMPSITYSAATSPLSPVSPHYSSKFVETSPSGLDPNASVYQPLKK
UniProt Q9NZL9, whole entry, looked up: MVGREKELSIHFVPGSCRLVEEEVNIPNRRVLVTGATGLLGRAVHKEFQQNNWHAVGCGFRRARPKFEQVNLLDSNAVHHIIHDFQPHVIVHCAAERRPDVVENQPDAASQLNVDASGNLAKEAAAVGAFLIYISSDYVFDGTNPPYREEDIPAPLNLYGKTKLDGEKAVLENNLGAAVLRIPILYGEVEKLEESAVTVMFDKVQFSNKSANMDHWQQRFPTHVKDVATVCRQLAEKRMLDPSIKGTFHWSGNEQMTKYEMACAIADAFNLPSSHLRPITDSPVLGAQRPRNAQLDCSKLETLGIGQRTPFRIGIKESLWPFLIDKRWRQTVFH
UniProt Q9Y250: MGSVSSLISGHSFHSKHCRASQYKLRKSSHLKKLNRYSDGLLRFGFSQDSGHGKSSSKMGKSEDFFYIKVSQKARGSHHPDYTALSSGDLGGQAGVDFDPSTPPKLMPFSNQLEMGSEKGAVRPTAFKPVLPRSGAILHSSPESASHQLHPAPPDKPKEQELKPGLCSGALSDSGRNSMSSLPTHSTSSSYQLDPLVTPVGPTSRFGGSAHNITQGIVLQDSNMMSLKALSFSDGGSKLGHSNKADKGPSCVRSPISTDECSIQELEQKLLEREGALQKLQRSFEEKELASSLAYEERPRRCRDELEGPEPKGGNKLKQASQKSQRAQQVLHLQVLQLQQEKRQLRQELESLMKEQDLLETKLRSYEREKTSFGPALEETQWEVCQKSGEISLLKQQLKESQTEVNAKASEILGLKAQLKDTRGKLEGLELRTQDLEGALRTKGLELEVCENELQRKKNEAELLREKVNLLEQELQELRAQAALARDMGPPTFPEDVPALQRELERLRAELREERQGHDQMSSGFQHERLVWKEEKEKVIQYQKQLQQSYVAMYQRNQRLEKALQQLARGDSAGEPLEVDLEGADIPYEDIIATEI
UniProt P20645: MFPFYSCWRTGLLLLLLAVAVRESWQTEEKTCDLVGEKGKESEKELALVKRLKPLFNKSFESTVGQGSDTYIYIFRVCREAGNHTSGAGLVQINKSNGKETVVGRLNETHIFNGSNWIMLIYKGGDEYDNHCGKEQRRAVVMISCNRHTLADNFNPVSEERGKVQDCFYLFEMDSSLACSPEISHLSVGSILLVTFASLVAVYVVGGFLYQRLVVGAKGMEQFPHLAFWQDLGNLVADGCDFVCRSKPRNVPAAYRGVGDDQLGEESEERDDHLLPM
UniProt Q13257, whole entry, looked up: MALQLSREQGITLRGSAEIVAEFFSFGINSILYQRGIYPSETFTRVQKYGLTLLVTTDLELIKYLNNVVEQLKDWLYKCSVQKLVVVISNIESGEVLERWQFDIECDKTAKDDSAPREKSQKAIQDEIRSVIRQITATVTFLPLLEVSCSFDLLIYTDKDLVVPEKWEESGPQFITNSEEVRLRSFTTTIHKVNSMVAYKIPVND
UniProt P27361, whole entry, looked up: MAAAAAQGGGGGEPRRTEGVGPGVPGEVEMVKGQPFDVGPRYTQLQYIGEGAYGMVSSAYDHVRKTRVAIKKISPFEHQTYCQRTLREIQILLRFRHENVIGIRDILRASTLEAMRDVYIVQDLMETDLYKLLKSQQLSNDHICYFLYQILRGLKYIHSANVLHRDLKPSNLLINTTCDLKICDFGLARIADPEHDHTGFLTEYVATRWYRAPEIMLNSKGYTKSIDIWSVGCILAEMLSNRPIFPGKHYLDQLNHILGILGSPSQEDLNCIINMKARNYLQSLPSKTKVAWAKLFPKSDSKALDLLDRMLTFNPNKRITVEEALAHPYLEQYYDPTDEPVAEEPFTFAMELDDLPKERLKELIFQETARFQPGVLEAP
UniProt Q96GA3: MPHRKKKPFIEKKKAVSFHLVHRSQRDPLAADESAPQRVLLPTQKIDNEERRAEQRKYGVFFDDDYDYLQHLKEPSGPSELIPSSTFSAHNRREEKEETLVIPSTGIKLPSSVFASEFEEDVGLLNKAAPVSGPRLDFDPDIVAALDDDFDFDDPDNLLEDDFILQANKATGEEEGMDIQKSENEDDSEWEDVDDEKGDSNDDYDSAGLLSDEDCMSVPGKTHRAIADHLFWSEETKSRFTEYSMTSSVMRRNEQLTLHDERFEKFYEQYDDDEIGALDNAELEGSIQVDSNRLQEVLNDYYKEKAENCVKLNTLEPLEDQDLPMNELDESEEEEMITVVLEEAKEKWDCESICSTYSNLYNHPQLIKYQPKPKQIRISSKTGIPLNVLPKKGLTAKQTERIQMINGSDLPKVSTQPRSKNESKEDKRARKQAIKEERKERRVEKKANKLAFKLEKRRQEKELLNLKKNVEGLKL
UniProt Q9HD34: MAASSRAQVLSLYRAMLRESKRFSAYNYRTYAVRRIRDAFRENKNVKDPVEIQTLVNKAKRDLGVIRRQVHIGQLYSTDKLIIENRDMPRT
UniProt Q5U5X0: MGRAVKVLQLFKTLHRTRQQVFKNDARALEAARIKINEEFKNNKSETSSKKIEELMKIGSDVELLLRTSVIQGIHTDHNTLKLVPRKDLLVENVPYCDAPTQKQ

[1] = compound: C/C(=N\NC(=O)C1=CC(=CC=C1)S(=O)(=O)N2CCOCC2)/C3=C(C=CC(=C3)Cl)O
Procedure, shortened: as §1

[2] = compound: C1=CC(=CC=C1C2=NC3=C(N2)C=C(C=C3)C(=O)N)OC4=CC=C(C=C4)Cl
Procedure, shortened: as §1

[3] = compound: C1=CC2=C(C=CC(=C2)/C=C\3/C(=O)NC(=NCC4=CC=CS4)S3)N=C1
Procedure, shortened: as §1

[4] = compound: C1=CC2=NC=CN=C2C=C1/C=C/3\C(=O)NC(=O)S3
Procedure, shortened: as §1

[5] = compound: C1=CC=C(C=C1)C2=NC(=C(N2)C3=CC=NC=C3)C4=CC(=C(C=C4)Cl)O
Procedure, shortened: as §1

[6] = compound: C1=CC=C2C(=C1)C3=NNC4=CC=CC(=C43)C2=O
Procedure, shortened: as §1

[7] = compound: C1CCN(C1)C(=O)NC2=CC=CC(=C2)NC3=NC=C(C(=N3)NCCC4=CN=CN4)Br
Procedure, shortened: as §1

[8] = compound: C1CN(CCC1(CC2=CC=C(C=C2)Cl)N)C3=NC=NC4=C3C=CN4
Procedure, shortened: as §1

IRAK-1-4 Inhibitor I = compound: C1COCCN1CCN2C3=CC=CC=C3N=C2NC(=O)C4=CC(=CC=C4)[N+](=O)[O-] [IRAK-1-4 Inhibitor I]
Procedure, shortened: as §1

ibrutinib = compound: C=CC(=O)N1CCC[C@@H](n2nc(-c3ccc(Oc4ccccc4)cc3)c3c(N)ncnc32)C1 [ibrutinib]
Procedure, shortened: as §1

[9] = compound: CC(=O)c1cnc2ccc(-c3cc(Cl)c(O)c(Cl)c3)nc2c1N[C@H]1CC[C@H](CN(C)C)CC1
Procedure, shortened: as §1

ralimetinib = compound: CC(C)(C)Cn1c(N)nc2ccc(-c3[nH]c(C(C)(C)C)nc3-c3ccc(F)cc3)nc21 [ralimetinib]
Procedure, shortened: as §1

[10] = compound: CC(C)(O)CC(=O)NCCn1ccc2ncnc(Nc3ccc(Oc4cccc(C(F)(F)F)c4)c(Cl)c3)c21
Procedure, shortened: as §1

[11] = compound: CC(C)C1=C2N=C(C=C(N2N=C1)NCC3=CC=CC=C3)NCCCCCCN
Procedure, shortened: as §1

[12] = compound: CC1=C(C(CC(=O)N1)C2=CC=C(C=C2)C(F)(F)F)C(=O)NC3=C(C=C4C(=C3)C=NN4)F
Procedure, shortened: as §1

[13] = compound: CC1=C(C2=C(C=C1)C(=O)C3=CC=CC=C3N2CCCN)C
Procedure, shortened: as §1

[14] = compound: CC1=C(C=C(C=C1)NC(=O)C2=CC(=CC=C2)C(C)(C)C#N)NC3=CC4=C(C=C3)N=CN(C4=O)C
Procedure, shortened: as §1

[15] = compound: CC1=C(C=C(C=C1)NC(=O)C2=CC(=CC=C2)N(C)C)NC(=O)C3=CC=C(C=C3)O
Procedure, shortened: as §1

[16] = compound: CC1=CC=C(C=C1)SC2=C3C=C(SC3=CN=C2)C(=O)N
Procedure, shortened: as §1

Measured: log2 fold change

MAPRE1 (UniProt Q15691)
inactive: erlotinib -0.026 | [1] 0.016 | [2] -0.027 | [3] -0.022 | [4] -0.022 | [5] 0.008 | [6] -0.004 | [7] -0.007 | [8] 0 | IRAK-1-4 Inhibitor I -0.004 | ibrutinib -0.004 | [9] 0.022 | ralimetinib -0.043 | [10] 0.038 | [11] 0.001 | [12] -0.006 | [13] 0.02 | [14] -0.008 | [15] -0.003 | [16] 0.034

MAP3K4 (UniProt Q9Y6R4)
inactive: erlotinib 0.051 | [1] -0.027 | [2] -0.026 | [3] 0.011 | [4] -0.014 | [5] 0.018 | [6] 0.105 | [7] 0.051 | [8] -0.101 | IRAK-1-4 Inhibitor I -0.013 | ibrutinib 0.046 | [9] 0.19 | ralimetinib 0 | [10] 0.005 | [11] -0.039 | [12] -0.015 | [13] -0.012 | [14] -0.006 | [15] -0.001 | [16] -0.027

MAPRE3 (UniProt Q9UPY8)
inactive: erlotinib -0.007 | [1] -0.005 | [2] -0.004 | [3] 0.066 | [4] 0.022 | [5] 0.011 | [6] 0.025 | [7] 0.02 | [8] 0.027 | IRAK-1-4 Inhibitor I -0.01 | ibrutinib -0.002 | [9] 0.01 | ralimetinib 0.001 | [10] 0.079 | [11] 0.019 | [12] 0.057 | [13] 0.024 | [14] -0.046 | [15] 0.002 | [16] 0.026

MARCKSL1 (UniProt P49006)
inactive: erlotinib -0.062 | [1] -0.028 | [2] -0.121 | [3] -0.01 | [4] 0 | [5] 0.051 | [6] 0.187 | [7] 0.091 | [8] 0.019 | IRAK-1-4 Inhibitor I -0.044 | ibrutinib -0.015 | [9] 0.033 | ralimetinib -0.039 | [10] 0.105 | [11] -0.034 | [12] -0.029 | [13] 0.019 | [14] -0.033 | [15] -0.013 | [16] 0.075

MACO1 (UniProt Q8N5G2)
active: [6] -0.336
inactive: erlotinib -0.072 | [1] -0.009 | [2] -0.005 | [3] -0.161 | [4] 0.062 | [5] -0.022 | [7] 0 | [8] 0.012 | IRAK-1-4 Inhibitor I 0.022 | ibrutinib 0 | [9] 0.043 | ralimetinib -0.003 | [10] -0.04 | [11] 0.01 | [12] 0.018 | [13] -0.043 | [14] -0.023 | [15] -0.002 | [16] 0.095

MAP1B (UniProt P46821)
inactive: erlotinib -0.02 | [1] -0.012 | [2] 0.009 | [3] -0.006 | [4] -0.008 | [5] 0.012 | [6] 0.004 | [7] -0.002 | [8] 0 | IRAK-1-4 Inhibitor I 0.011 | ibrutinib -0.006 | [9] -0.004 | ralimetinib -0.011 | [10] -0.005 | [11] -0.004 | [12] -0.027 | [13] 0 | [14] 0.01 | [15] 0.017 | [16] -0.017

MAT2B (UniProt Q9NZL9)
inactive: erlotinib -0.009 | [1] -0.004 | [2] -0.033 | [3] -0.014 | [4] -0.006 | [5] -0.01 | [6] 0.036 | [7] 0.015 | [8] -0.004 | IRAK-1-4 Inhibitor I 0.017 | ibrutinib 0 | [9] -0.008 | ralimetinib -0.005 | [10] -0.006 | [11] -0.002 | [12] -0.023 | [13] 0.016 | [14] 0.015 | [15] -0.013 | [16] -0.005

LZTS1 (UniProt Q9Y250)
inactive: erlotinib 0.182 | [1] 0.832 | [2] 0.291 | [3] -0.011 | [4] -0.12 | [5] 0.113 | [6] -0.075 | [7] -0.2 | [8] -0.07 | IRAK-1-4 Inhibitor I 0.055 | ibrutinib 0.104 | [9] -0.008 | ralimetinib 0.049 | [10] -0.176 | [11] 0.116 | [12] -0.028 | [13] -0.233 | [14] 0.705 | [15] -0.111 | [16] -0.007

M6PR (UniProt P20645)
inactive: erlotinib -0.044 | [1] -0.044 | [2] 0.023 | [3] 0.053 | [4] -0.039 | [5] 0.052 | [6] 0.004 | [7] -0.001 | [8] -0.04 | IRAK-1-4 Inhibitor I -0.027 | ibrutinib -0.017 | [9] 0.006 | ralimetinib 0.006 | [10] 0.026 | [11] -0.015 | [12] 0.082 | [13] -0.01 | [14] -0.014 | [15] 0.03 | [16] -0.042

MAD2L1 (UniProt Q13257)
inactive: erlotinib -0.026 | [1] 0.032 | [2] -0.025 | [3] -0.021 | [4] 0.007 | [5] -0.003 | [6] -0.001 | [7] -0.022 | [8] -0.018 | IRAK-1-4 Inhibitor I 0.02 | ibrutinib 0.005 | [9] -0.003 | ralimetinib 0.035 | [10] 0.001 | [11] -0.021 | [12] -0.003 | [13] -0.03 | [14] 0.015 | [15] -0.018 | [16] -0.004

MAPK3 (UniProt P27361)
inactive: erlotinib 0 | [1] 0.02 | [2] 0 | [3] -0.025 | [4] 0.031 | [5] 0.01 | [6] 0.052 | [7] 0.021 | [8] 0.055 | IRAK-1-4 Inhibitor I 0.049 | ibrutinib 0.001 | [9] 0.017 | ralimetinib -0.02 | [10] -0.018 | [11] -0.033 | [12] -0.012 | [13] -0.006 | [14] 0.026 | [15] -0.022 | [16] -0.028

Two records drawn at random from the list so far:
MAP3K4 (UniProt Q9Y6R4)
inactive: erlotinib 0.051 | [1] -0.027 | [2] -0.026 | [3] 0.011 | [4] -0.014 | [5] 0.018 | [6] 0.105 | [7] 0.051 | [8] -0.101 | IRAK-1-4 Inhibitor I -0.013 | ibrutinib 0.046 | [9] 0.19 | ralimetinib 0 | [10] 0.005 | [11] -0.039 | [12] -0.015 | [13] -0.012 | [14] -0.006 | [15] -0.001 | [16] -0.027

MACO1 (UniProt Q8N5G2)
active: [6] -0.336
inactive: erlotinib -0.072 | [1] -0.009 | [2] -0.005 | [3] -0.161 | [4] 0.062 | [5] -0.022 | [7] 0 | [8] 0.012 | IRAK-1-4 Inhibitor I 0.022 | ibrutinib 0 | [9] 0.043 | ralimetinib -0.003 | [10] -0.04 | [11] 0.01 | [12] 0.018 | [13] -0.043 | [14] -0.023 | [15] -0.002 | [16] 0.095

(continued)

LTV1 (UniProt Q96GA3)
inactive: erlotinib -0.004 | [1] -0.113 | [2] -0.005 | [3] -0.008 | [4] -0.002 | [5] 0.005 | [6] -0.006 | [7] 0.013 | [8] 0.014 | IRAK-1-4 Inhibitor I -0.057 | ibrutinib 0.001 | [9] -0.004 | ralimetinib -0.005 | [10] 0.016 | [11] 0.024 | [12] 0.008 | [13] -0.068 | [14] -0.001 | [15] -0.001 | [16] 0.029

LYRM4 (UniProt Q9HD34)
inactive: erlotinib -0.009 | [1] 0.016 | [2] 0.02 | [3] -0.117 | [4] -0.017 | [5] -0.011 | [6] -0.002 | [7] -0.02 | [8] 0.06 | IRAK-1-4 Inhibitor I 0.005 | ibrutinib 0.015 | [9] 0.034 | ralimetinib -0.036 | [10] -0.042 | [11] 0.017 | [12] 0.017 | [13] -0.027 | [14] 0.109 | [15] -0.034 | [16] -0.009

LYZ (UniProt P61626)
inactive: erlotinib -0.188 | [1] 1.39 | [2] -0.247 | [3] -0.099 | [4] 0 | [5] 0.067 | [6] -0.021 | [7] 0.257 | [8] -0.098 | IRAK-1-4 Inhibitor I -0.34 | ibrutinib -0.033 | [9] 0.233 | ralimetinib -0.034 | [10] 0.151 | [11] 1.83 | [12] 2.03 | [13] 0.122 | [14] 0.23 | [15] -0.318 | [16] -0.401

LYRM7 (UniProt Q5U5X0)
inactive: erlotinib 0.004 | [1] 0.072 | [2] 0.013 | [3] -0.017 | [4] 0.01 | [5] 0.021 | [6] 0.016 | [7] 0.076 | [8] 0.016 | IRAK-1-4 Inhibitor I 0.089 | ibrutinib 0.155 | [9] -0.035 | ralimetinib -0.102 | [10] 0.014 | [11] 0.012 | [12] 0.016 | [13] -0.053 | [14] 0.001 | [15] -0.02 | [16] -0.017

MAPK8IP3 (UniProt Q9UPT6)
inactive: erlotinib -0.038 | [1] 0.009 | [2] 0.003 | [3] -0.018 | [4] -0.017 | [5] -0.017 | [6] 0.044 | [7] 0.032 | [8] -0.015 | IRAK-1-4 Inhibitor I -0.011 | ibrutinib 0.018 | [9] 0.024 | ralimetinib 0.05 | [10] -0.008 | [11] -0.033 | [12] -0.018 | [13] -0.076 | [14] -0.019 | [15] -0.016 | [16] -0.002

Source: the supplement of paper PMC10849652
